From article PMC6646309 come the findings set out here.

Protein sequences, listed by entry. Tags and fused reporters are not part of them. Lines headed by an entry give the natural chain unless they say otherwise; changes in a name come on top. Chains listed by the source or under a name are the forms on record and can include a tag or linker.
UniProt Q14694: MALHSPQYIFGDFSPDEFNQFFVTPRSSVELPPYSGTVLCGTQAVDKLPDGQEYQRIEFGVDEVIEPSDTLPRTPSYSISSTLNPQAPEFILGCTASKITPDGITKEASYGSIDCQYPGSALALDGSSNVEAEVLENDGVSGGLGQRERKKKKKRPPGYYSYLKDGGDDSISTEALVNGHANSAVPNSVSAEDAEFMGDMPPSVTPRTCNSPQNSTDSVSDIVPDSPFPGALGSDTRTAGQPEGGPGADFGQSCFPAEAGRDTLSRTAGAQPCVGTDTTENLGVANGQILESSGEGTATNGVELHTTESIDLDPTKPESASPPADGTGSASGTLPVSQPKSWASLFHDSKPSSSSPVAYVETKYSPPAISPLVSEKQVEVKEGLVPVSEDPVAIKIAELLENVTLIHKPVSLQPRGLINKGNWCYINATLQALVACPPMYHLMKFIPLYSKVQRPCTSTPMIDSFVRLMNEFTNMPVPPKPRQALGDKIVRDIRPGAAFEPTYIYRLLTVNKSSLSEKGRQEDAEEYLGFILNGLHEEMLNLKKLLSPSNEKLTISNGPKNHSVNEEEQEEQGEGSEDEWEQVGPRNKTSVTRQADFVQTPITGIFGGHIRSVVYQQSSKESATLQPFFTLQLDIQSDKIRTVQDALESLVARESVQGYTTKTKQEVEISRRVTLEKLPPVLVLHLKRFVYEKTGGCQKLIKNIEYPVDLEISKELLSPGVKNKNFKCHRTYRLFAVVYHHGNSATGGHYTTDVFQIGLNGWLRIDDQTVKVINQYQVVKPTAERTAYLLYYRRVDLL
Tau (Tau4R1N) (P10636-7, form named): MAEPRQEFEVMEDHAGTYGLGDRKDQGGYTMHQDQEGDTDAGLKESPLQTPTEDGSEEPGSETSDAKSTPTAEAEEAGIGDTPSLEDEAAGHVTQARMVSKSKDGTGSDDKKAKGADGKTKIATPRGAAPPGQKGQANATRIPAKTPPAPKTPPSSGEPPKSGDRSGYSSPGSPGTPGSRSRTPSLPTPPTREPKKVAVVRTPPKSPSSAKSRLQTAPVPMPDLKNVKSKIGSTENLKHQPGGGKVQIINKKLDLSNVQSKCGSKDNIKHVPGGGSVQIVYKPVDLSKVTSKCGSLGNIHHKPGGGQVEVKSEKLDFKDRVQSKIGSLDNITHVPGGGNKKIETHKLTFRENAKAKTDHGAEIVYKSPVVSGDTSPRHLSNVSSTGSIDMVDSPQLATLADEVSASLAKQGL

Results are given in words; binding and its absence hold for the method and conditions named. In cells and extracts the contact can be indirect. Sequences can lack the tags named with a protein.

For the assay, the target named is ubiquitin-specific protease 10 (USP10), HA-tagged (UniProt Q14694). The assay is described as follows: co-IP; HT22 cells transfected with Tau4R1N plasmid along with HA-USP10 and/or FLAG-TIA1; lysed in NP-40 lysis buffer (1% NP-40, 125 mM Tris-HCl pH 7.2, 150 mM NaCl, 1 mM EDTA); immunoprecipitated with anti-HA; blots with anti-HA, anti-FLAG and anti-Tau (TAU-5).

For “Tau (Tau4R1N) (from UniProt P10636-7 1-412)”, the binding entry is “no binding”.

B1: T-cell intracellular antigen 1 (TIA1), FLAG-tagged (protein, UniProt P31483 1-386)
chain: MEDEMPKTLYVGNLSRDVTEALILQLFSQIGPCKNCKMIMDTAGNDPYCFVEFHEHRHAAAALAAMNGRKIMGKEVKVNWATTPSSQKKDTSSSTVVSTQRSQDHFHVFVGDLSPEITTEDIKAAFAPFGRISDARVVKDMATGKSKGYGFVSFFNKWDAENAIQQMGGQWLGGRQIRTNWATRKPPAPKSTYESNTKQLSYDEVVNQSSPSNCTVYCGGVTSGLTEQLMRQTFSPFGQIMEIRVFPDKGYSFVRFNSHESAAHAIVSVNGTTIEGHVVKCYWGKETLDMINPVQQQNQIGYPQPYGQWGQWYGNAQQIGQYMPNGWQVPAYGMYGQAWNQQGFNQTQSSAPWMGPNYGVQPPQGQNGSMLPNQPSGYRVAGYETQ
Regarding B1, the binding entry is given as “no binding”.
